Some of the results follow.
These compounds were tested on T1, CTL2-GFP (C. trachomatis L2/434/Bu, GFP-expressing). Conditions: bulk GFP, single well; 28.5 h, 10 µM; inhibitor.
T1 construct: L2/434/Bu, GFP-expressing
Set-up: species or system HeLa; Intracellular C. trachomatis growth in HeLa cells, bulk GFP fluorescence relative to DMSO
For OCc1ccccc1CN1CCOCC1 [CBK264388C], the “% of control remaining” value was 100%.
In the case of COc1ccc(C(=O)Nn2c(SCC(=O)c3ccc(F)cc3)nc3ccccc3c2=O)cc1 [CBK266688], the “% of control remaining” value is reported as 120.538%.
With Cc1cccn2c(CN(C)C(C)C(N)=O)c(C(=O)N3CCOCC3)nc12 (centres unmarked) [CBK306592] the “% of control remaining” value was 122.806%.
Cc1ccc2c(CC(=O)N(C)CCN3CCCCC3)coc2c1 [CBK282747] was tested, and the “% of control remaining” value was 130.714%.
With O=S(=O)(Nc1nnn[nH]1)c1ccc(Br)cc1C(F)(F)F [CBK062388] the “% of control remaining” value was 97.4587%.
CCNC(=O)N1CC2(CCN(Cc3cc(OC)c(OC)c(OC)c3)CC2)c2ccccc21 [CBK126689] was tested, and the “% of control remaining” value was 98.9914%.
With COc1cc(NC(=O)Cc2cccc3ccccc23)c(C(=O)O)cc1OC [CBK268206] the “% of control remaining” value was 96.6135%.
With Oc1ccc2c(c1)C(O)CC1(CCN(CC(O)c3ccc(-c4ccccc4)cc3)CC1)O2 (centres unmarked) [CBK286351] the “% of control remaining” value was 122.623%.
In the case of CCN(CC)C(=O)CN1CCC(Oc2cncc(OCC3COc4ccccc4O3)n2)C1 (centres unmarked) [CBK084374], the “% of control remaining” value is reported as 130.273%.
For O=S1(=O)CCN(Cc2cnn(-c3ccc(OC(F)(F)F)cc3)n2)CC1 [CBK112883], the “% of control remaining” value was 96.6533%.
With Cc1nnc2sc(-c3ccccc3NC(=S)NC(=O)c3cc4ccccc4o3)nn12 [CBK268845] the “% of control remaining” value was 139.749%.
With COc1ccc(C(=O)C2=C(O)C(=O)N(CCN3CCNCC3)C2c2ccc(Cl)c(Cl)c2)cc1 (centres unmarked) [CBK264616] the “% of control remaining” value was 100%.
COC(=O)c1ccccc1NC(=O)CSc1nnc(-c2ccccc2)[nH]1 [CBK266338] was tested, and the “% of control remaining” value was 154.547%.
CC(Cc1nc(C2(Cl)CC2)cs1)n1cc(Cl)cn1 (centres unmarked) [CBK304715] was tested, and the “% of control remaining” value was 127.795%.
For NC(=O)C1(Cc2cccc(-c3cccs3)c2)CCN(C(=O)COc2ccccc2)CC1 [CBK285741], the “% of control remaining” value was 107.08%.
CC1(C)CC(=O)C2=C(C1)Nc1ccccc1N(C(=S)NCc1ccco1)C2c1cccnc1 (centres unmarked) [CBK267342] was tested, and the “% of control remaining” value was 200.887%.
For CCOCCCn1c(SCC(=O)NC(Cc2ccccc2)C(=O)O)nc2ccccc2c1=O (centres unmarked) [CBK297132], the “% of control remaining” value was 105.146%.
In the case of O=C(O)/C=C/c1cccc(-c2cncc(N3CCN(Cc4ccccn4)CC3)n2)c1 [CBK066085], the “% of control remaining” value is reported as 113.711%.
In the case of COc1c(C)[nH]cc(CN(C)CCC(=O)Nc2cccc(F)c2)c1=O [CBK304201], the “% of control remaining” value is reported as 109.87%.
In the case of CN(C)CCNC(=O)c1cccc(-c2cnc(N)c(N3CCN(C)CC3)n2)c1 [CBK063393], the “% of control remaining” value is reported as 99.8307%.
For O=C(NCC(c1ccccc1)c1ccccc1)N1CCN(c2ccc(F)cc2)CC1 [CBK156415], the “% of control remaining” value was 95.4568%.
With CN1CCN(/N=C/c2c(C(F)(F)F)[nH]n(-c3nc4ccccc4s3)c2=O)CC1 [CBK263163] the “% of control remaining” value was 112.227%.
In the case of COc1cccc2ncn(Cc3n[nH]c(C)n3)c(=O)c12 [CBK306938], the “% of control remaining” value is reported as 122.719%.
CC1CCN(Cc2ccc(-c3nnn(CC(=O)NCc4ccc(C(F)(F)F)cn4)n3)cc2)CC1 [CBK149722T] was tested, and the “% of control remaining” value was 109.685%.
In the case of CC(=O)Nc1ccc(CNC(=O)CN2CCCC(c3ncc[nH]3)C2)cc1 (centres unmarked) [CBK307718], the “% of control remaining” value is reported as 111.114%.
With CC1c2ccsc2CCN1C(=O)COc1cccc(Br)c1 (centres unmarked) [CBK305434] the “% of control remaining” value was 105.083%.
With COc1ccc(N2C(=O)CC(Nc3ccc(Cc4nc5ccccc5[nH]4)cc3)C2=O)cc1 (centres unmarked) [CBK266480] the “% of control remaining” value was 158.016%.
With FC(F)(F)c1cccc(Sc2ccc(Cl)c(Cl)c2)n1 [CBK089608] the “% of control remaining” value was 134.781%.
CN(C)S(=O)(=O)NCc1ccc2c(c1)OCO2 [CBK264364] was tested, and the “% of control remaining” value was 100%.
With CCC(O)CNC(=O)c1coc(COc2ccc3sc(C)nc3c2)n1 (centres unmarked) [CBK307700] the “% of control remaining” value was 90.1472%.
With CCN1CCN(c2ccc(NC(=O)c3cccc(OCc4ccccc4)c3)cc2)CC1 [CBK266471] the “% of control remaining” value was 160.917%.
Cc1ccccc1OC(C)C(=O)Nc1nnc[nH]1 (centres unmarked) [CBK268605] was tested, and the “% of control remaining” value was 117.969%.
For Cc1cn2c(=O)c3ncn([C@H]4C[C@@H](O)[C@@H](CO)O4)c3nc2[nH]1 [CBK201320], the “% of control remaining” value was 152.438%.
In the case of CC(C)NC(=O)[C@H]1CN2CCC1C[C@@H]2Cn1cc(-c2cccc(O)c2)nn1 (some centres unmarked) [CBK288731], the “% of control remaining” value is reported as 139.806%.
With CCCCCOc1ccc(C2NC(=O)NC2=O)cc1 (centres unmarked) [CBK287865] the “% of control remaining” value was 133.473%.
For CN(C)Cc1nc2c([nH]1)c(=O)n(C)c(=O)n2C [CBK140662], the “% of control remaining” value was 76.9391%.
With Oc1nc2ccc(Oc3ccc4nc(O)c(O)nc4c3)cc2nc1O [CBK293978] the “% of control remaining” value was 148.922%.
With NC(=O)c1cc2c(OCCCN3CCN(C(c4ccccc4)c4ccccc4)CC3)cccc2[nH]1 [CBK016544] the “% of control remaining” value was 157.66%.
With COc1ccc(/C=N/Nc2nc(OC)nc(N3CCOCC3)n2)cc1 [CBK025751] the “% of control remaining” value was 109.565%.
With CS(=O)(=O)Nc1ncc(-c2ccco2)cc1C(=O)NCc1nc2ccccc2[nH]1 [CBK076468] the “% of control remaining” value was 119.232%.
In the case of Cc1ccc(SCC(=O)Nc2cc([N+](=O)[O-])ccc2O)cc1 [CBK268655], the “% of control remaining” value is reported as 72.0247%.
For COc1ccc([C@@]23CCCN(C(=O)Nc4ccc(SC(F)(F)F)cc4)C[C@@H]2N(C)CC3)cc1OC [CBK056681T], the “% of control remaining” value was 164.03%.
For Cc1cc2c(s1)c1cnn(CC(=O)NC(C)(C)C)c(=O)c1n2C [CBK284158], the “% of control remaining” value was 134.173%.
For COC(=O)c1ccsc1NS(=O)(=O)c1cc(Br)ccc1OC [CBK039065], the “% of control remaining” value was 104.38%.
For Cc1cc(C)nc(N/C(=N/C(=O)Cc2ccccc2)N2CCC(C(N)=O)CC2)n1 [CBK263889], the “% of control remaining” value was 103.325%.
CC(C)(C)c1ccc(-c2cnc(N)c3ncccc23)cc1 [CBK067589] was tested, and the “% of control remaining” value was 96.4282%.
In the case of Cc1ccc(CNC(=O)OCCN2CCN(C)CC2)n1C [CBK200287], the “% of control remaining” value is reported as 118.078%.
With Cc1ccc2sc(NC(=O)c3ccc(Cl)s3)nc2c1C [CBK291144] the “% of control remaining” value was 117.947%.
For COc1ccc(-c2ccccc2NC(=O)c2ccc(Cn3cnnn3)cc2)cc1 [CBK285866], the “% of control remaining” value was 131.408%.
For CC(C)CC1(C(CCN2C(=O)c3ccccc3C2=O)C(=O)NO)CCN(Cc2cccc(F)c2)C1=O (centres unmarked) [CBK013032], the “% of control remaining” value was 142.363%.
For COc1ccc(CCc2nc(C)cc(CN(C)C)c2O)cc1 [CBK278313C], the “% of control remaining” value was 114.169%.
In the case of CCNc1nc2c(c(=O)[nH]c(=O)n2C)n1CCCc1ccccc1 [CBK269243], the “% of control remaining” value is reported as 128.113%.
In the case of COc1ccc(C(C)C)cc1-c1cnc(N)c(NCCCN2CCOCC2)n1 [CBK063625], the “% of control remaining” value is reported as 130.498%.
With CN1CCN(c2cc(N3CCN(C)CC3)c([N+](=O)[O-])cc2C2Nc3ccc4ccccc4c3C3=C2C(=O)CC(C)(C)C3)CC1 (centres unmarked) [CBK262381] the “% of control remaining” value was 78.3154%.
OCc1cccc(-c2nccnc2NCC(O)COc2ccccc2)c1 (centres unmarked) [CBK036842] was tested, and the “% of control remaining” value was 170.605%.
For O=C(O)CCNS(=O)(=O)c1ccc(Br)cc1 [CBK261941], the “% of control remaining” value was 109.459%.
O=C(O)CCCc1[nH]nc(O)c1Cc1c(Cl)cccc1Cl [CBK081137] was tested, and the “% of control remaining” value was 73.3125%.
With O=C(Nc1cccc2ccccc12)C(c1ccccc1)N1CCOCC1 (centres unmarked) [CBK269388] the “% of control remaining” value was 92.6743%.
For CC(=O)Nc1cccc(-c2cc(Nc3ccc(N4CCN(Cc5ccccc5)CC4)cc3)ncn2)c1 [CBK037709], the “% of control remaining” value was 136.468%.
For O=C(O)CCC(=O)NNC(=O)c1ccc(O)cc1 [CBK261353], the “% of control remaining” value was 96.8552%.
CCCCc1ccc(-c2cnc3ncccc3c2N)cc1 [CBK083683] was tested, and the “% of control remaining” value was 98.4012%.
CNC(=S)NCc1nc(-c2ccc(C)cc2)no1 [CBK288418] was tested, and the “% of control remaining” value was 88.7812%.
In the case of CC1(C)CC2(CC(C)(C(=O)CSc3nnc(-c4ccccc4Br)[nH]3)OC2=O)C(=O)O1 (centres unmarked) [CBK266713], the “% of control remaining” value is reported as 149.858%.
Cc1ccc(S(=O)(=O)Nc2ccc(C(=O)O)cc2)cc1 [CBK034060] was tested, and the “% of control remaining” value was 120.556%.
OC(COc1cccc(Oc2ccccc2)c1)CN1CCN(c2ccccc2F)CC1 (centres unmarked) [CBK267468] was tested, and the “% of control remaining” value was 153.401%.
In the case of CC(NC(=O)c1ncoc1-c1ccc2ccccc2c1)c1cccnc1 (centres unmarked) [CBK282441], the “% of control remaining” value is reported as 112.993%.
CCCCNC(=O)c1nnc(C(=O)Nc2cccc(Cl)c2)s1 [CBK294407] was tested, and the “% of control remaining” value was 148.014%.
In the case of Cc1c(C(=O)NC(Cc2cccs2)c2nccs2)cnn1C (centres unmarked) [CBK285053], the “% of control remaining” value is reported as 132.446%.
In the case of Cc1nn(C)c(C)c1CN1CCOC(c2nc(C(C)(C)C)cs2)C1 (centres unmarked) [CBK304170], the “% of control remaining” value is reported as 127.597%.
In the case of O=C(CCn1cccn1)NCC1CCCOC1 (centres unmarked) [CBK281474], the “% of control remaining” value is reported as 106.802%.
COc1cc(-c2nccnc2N2CCCN(C)CC2)cc(OC)c1OC [CBK037994] was tested, and the “% of control remaining” value was 86.5342%.
For C[C@@H](c1ccccc1)n1c(=O)[nH]c2ncc(-c3cccc(/C=C/C(=O)O)c3)nc21 [CBK065040], the “% of control remaining” value was 98.0919%.
COc1cc2c(cc1OC)C1c3ccccc3NC(c3ccc(C)cc3)N1CC2 (centres unmarked) [CBK286195] was tested, and the “% of control remaining” value was 129.323%.
COc1ncc(-c2cncc(N[C@H](C)c3ccccc3)n2)c(OC)n1 [CBK065267] was tested, and the “% of control remaining” value was 177.522%.
For Cn1ccc(C(=O)N2CCC[C@H](C(=O)c3cccs3)C2)n1 [CBK282412], the “% of control remaining” value was 155.866%.
With c1cc(COc2ccc(N3CCNCC3)nn2)co1 [CBK022562] the “% of control remaining” value was 156.955%.
O=C(Cn1cccc(C(=O)Nc2ccc(F)cc2)c1=O)NC1(c2ccccc2)CCCC1 [CBK286057] was tested, and the “% of control remaining” value was 123.997%.

Source: article PMC12040169 (PLOS Biology, 2025)
